Laboratory results from the NIST ThermoML archive (doi:10.1021/je1005483).
± gives the expanded uncertainty stated by the source.

Legend:
[1] = molar heat capacity at constant pressure; conditions: 298.15 K; 101.3 kPa; Liquid; Flow calorimetry
[2] = molar heat capacity at constant pressure; xn = mol fraction of the nth substance listed; conditions: 298.15 K, 101.3 kPa, Liquid, Flow calorimetry

SMILES: CC(=O)N(C)C [N,N-dimethylethanamide]
- molar heat capacity at constant pressure [1]: 175.49 ± 1.1 J/K/mol

SMILES: CC(=O)N(C)C [N,N-dimethylethanamide] + CC#N
- molar heat capacity at constant pressure ([2]; x1 = 0.03032): 94.92 ± 0.59 J/K/mol
- molar heat capacity at constant pressure ([2]; x1 = 0.05087): 96.66 ± 0.6 J/K/mol
- molar heat capacity at constant pressure ([2]; x1 = 0.08015): 99.14 ± 0.61 J/K/mol
- molar heat capacity at constant pressure ([2]; x1 = 0.1018): 100.97 ± 0.62 J/K/mol
- molar heat capacity at constant pressure ([2]; x1 = 0.1299): 103.36 ± 0.64 J/K/mol
- molar heat capacity at constant pressure ([2]; x1 = 0.1504): 105.1 ± 0.65 J/K/mol
- molar heat capacity at constant pressure ([2]; x1 = 0.1712): 106.87 ± 0.66 J/K/mol
- molar heat capacity at constant pressure ([2]; x1 = 0.2014): 109.43 ± 0.68 J/K/mol
- molar heat capacity at constant pressure ([2]; x1 = 0.2569): 114.15 ± 0.71 J/K/mol
- molar heat capacity at constant pressure ([2]; x1 = 0.3023): 118.01 ± 0.73 J/K/mol
- molar heat capacity at constant pressure ([2]; x1 = 0.3514): 122.17 ± 0.75 J/K/mol
- molar heat capacity at constant pressure ([2]; x1 = 0.4024): 126.48 ± 0.78 J/K/mol
- molar heat capacity at constant pressure ([2]; x1 = 0.501): 134.78 ± 0.83 J/K/mol
- molar heat capacity at constant pressure ([2]; x1 = 0.5509): 138.97 ± 0.86 J/K/mol
- molar heat capacity at constant pressure ([2]; x1 = 0.5996): 143.03 ± 0.88 J/K/mol
- molar heat capacity at constant pressure ([2]; x1 = 0.6588): 147.96 ± 0.91 J/K/mol
- molar heat capacity at constant pressure ([2]; x1 = 0.7505): 155.56 ± 0.96 J/K/mol
- molar heat capacity at constant pressure ([2]; x1 = 0.8497): 163.68 ± 1 J/K/mol
- molar heat capacity at constant pressure ([2]; x1 = 0.9004): 167.77 ± 1 J/K/mol
- molar heat capacity at constant pressure ([2]; x1 = 0.9286): 170 ± 1.1 J/K/mol
- molar heat capacity at constant pressure ([2]; x1 = 0.9506): 171.73 ± 1.1 J/K/mol
- molar heat capacity at constant pressure ([2]; x1 = 1): 175.49 ± 1.1 J/K/mol
